Drawing on the supplement of paper PMC12819154, “High-throughput peptide-centric local stability assay extends protein–ligand identification to membrane proteins, tissues and bacteria” (Nature Structural & Molecular Biology, 2025), this text covers log2 fold change for 39 targets.

Sequences of proteins named here, by UniProt entry; tags and fusion partners are left off. A change or cut given only in a name is not applied to a line headed by its entry.
UniProt Q9DC69, whole entry: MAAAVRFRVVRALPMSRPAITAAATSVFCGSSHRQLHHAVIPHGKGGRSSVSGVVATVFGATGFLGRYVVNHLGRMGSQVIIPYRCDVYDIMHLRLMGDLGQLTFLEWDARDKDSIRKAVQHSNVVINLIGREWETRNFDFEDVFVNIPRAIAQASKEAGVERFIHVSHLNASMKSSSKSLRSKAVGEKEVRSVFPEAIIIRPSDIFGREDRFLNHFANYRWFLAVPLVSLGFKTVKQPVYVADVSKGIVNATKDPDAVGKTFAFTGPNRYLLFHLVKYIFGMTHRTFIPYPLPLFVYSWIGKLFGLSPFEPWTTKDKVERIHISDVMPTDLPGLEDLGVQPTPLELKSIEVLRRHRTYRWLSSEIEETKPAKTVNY
UniProt Q9DBG6: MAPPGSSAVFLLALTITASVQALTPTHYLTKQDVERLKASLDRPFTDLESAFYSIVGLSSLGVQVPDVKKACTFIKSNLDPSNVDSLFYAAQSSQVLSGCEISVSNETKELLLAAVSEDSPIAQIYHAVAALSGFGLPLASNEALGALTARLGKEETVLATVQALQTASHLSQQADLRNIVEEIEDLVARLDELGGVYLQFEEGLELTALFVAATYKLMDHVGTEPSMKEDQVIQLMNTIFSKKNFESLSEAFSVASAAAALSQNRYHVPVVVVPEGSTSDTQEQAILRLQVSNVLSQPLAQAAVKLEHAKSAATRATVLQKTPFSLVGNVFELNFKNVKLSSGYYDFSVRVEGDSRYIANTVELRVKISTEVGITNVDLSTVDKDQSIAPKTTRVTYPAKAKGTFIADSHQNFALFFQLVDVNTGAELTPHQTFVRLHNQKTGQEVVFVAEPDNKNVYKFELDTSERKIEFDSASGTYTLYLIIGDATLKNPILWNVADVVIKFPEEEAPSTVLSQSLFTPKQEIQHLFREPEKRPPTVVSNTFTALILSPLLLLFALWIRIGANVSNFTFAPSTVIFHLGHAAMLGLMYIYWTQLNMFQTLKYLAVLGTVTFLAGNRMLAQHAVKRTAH
UniProt Q9DB29: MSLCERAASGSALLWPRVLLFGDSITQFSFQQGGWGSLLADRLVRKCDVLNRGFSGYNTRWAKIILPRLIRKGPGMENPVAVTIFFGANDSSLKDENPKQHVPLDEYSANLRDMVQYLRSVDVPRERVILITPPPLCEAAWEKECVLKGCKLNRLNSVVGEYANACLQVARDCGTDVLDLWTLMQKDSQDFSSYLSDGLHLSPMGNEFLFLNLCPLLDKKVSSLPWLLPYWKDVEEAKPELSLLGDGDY
UniProt Q9DBQ7: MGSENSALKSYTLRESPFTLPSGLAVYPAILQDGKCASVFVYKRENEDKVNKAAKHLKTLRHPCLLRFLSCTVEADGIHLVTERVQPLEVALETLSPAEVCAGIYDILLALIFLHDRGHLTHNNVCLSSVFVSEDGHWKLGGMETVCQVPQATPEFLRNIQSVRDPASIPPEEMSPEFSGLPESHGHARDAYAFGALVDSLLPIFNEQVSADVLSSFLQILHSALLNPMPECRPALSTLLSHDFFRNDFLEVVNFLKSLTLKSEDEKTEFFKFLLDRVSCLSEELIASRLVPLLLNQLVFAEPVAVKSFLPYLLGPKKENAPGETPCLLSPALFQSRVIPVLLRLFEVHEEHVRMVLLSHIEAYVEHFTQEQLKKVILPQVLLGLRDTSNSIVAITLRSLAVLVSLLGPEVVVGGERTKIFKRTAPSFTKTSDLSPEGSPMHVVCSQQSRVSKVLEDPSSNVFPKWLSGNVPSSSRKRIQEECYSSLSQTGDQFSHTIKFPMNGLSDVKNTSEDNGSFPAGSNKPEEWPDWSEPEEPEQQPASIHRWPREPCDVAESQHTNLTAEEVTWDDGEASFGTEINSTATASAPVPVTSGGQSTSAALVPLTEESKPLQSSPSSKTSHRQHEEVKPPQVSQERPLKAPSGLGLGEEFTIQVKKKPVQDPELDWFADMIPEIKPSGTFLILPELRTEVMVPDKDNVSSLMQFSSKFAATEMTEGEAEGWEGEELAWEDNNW
UniProt Q9DBJ3: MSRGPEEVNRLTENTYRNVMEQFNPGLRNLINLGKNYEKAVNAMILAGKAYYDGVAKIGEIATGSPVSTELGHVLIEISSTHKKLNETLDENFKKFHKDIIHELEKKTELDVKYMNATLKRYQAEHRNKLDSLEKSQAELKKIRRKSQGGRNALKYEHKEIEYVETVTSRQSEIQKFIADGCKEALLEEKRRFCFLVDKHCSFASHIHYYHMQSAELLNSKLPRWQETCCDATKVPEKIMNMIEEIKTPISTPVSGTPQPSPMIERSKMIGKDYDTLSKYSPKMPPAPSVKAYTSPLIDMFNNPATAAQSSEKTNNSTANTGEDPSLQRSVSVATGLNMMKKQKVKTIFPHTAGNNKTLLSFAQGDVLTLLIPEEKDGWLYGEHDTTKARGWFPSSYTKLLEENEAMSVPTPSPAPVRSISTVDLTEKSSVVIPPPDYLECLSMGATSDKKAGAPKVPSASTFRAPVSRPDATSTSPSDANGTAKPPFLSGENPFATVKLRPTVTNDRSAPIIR
UniProt Q9DBB9: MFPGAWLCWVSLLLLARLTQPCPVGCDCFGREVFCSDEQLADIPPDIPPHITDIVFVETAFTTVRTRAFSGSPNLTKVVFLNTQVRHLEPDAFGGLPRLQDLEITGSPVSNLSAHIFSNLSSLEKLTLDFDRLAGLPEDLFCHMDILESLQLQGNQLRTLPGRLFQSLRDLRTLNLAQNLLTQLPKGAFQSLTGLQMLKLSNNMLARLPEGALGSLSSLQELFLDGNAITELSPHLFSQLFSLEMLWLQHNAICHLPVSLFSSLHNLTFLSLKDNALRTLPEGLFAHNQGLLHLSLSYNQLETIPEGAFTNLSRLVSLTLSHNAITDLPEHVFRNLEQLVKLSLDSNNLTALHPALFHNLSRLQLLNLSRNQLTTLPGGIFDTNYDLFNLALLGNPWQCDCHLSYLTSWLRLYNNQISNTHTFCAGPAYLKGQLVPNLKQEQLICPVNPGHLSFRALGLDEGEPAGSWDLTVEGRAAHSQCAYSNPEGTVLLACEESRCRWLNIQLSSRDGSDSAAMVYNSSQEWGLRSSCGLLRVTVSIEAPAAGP
UniProt Q9DCU9: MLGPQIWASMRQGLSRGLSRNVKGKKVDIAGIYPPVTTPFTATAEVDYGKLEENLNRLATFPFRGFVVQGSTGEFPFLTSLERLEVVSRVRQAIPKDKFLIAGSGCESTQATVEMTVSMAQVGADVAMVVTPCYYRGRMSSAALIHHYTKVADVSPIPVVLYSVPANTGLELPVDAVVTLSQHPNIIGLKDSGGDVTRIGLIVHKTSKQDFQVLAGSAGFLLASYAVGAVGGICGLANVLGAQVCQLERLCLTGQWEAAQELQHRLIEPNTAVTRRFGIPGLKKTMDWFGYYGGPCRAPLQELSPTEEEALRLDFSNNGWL
UniProt Q9EQF5: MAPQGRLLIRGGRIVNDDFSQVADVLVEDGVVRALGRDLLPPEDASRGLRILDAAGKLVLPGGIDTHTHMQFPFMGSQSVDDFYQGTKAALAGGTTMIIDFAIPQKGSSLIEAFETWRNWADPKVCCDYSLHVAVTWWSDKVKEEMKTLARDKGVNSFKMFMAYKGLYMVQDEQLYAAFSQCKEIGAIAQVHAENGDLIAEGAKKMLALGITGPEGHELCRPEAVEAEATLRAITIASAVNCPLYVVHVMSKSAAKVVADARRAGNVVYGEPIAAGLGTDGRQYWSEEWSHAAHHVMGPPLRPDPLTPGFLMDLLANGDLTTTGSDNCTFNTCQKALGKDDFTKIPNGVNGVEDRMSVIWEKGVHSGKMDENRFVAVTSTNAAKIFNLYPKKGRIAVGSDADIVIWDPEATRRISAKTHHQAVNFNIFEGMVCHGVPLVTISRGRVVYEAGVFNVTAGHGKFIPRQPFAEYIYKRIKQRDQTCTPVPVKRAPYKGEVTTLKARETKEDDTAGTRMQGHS
UniProt Q9DD16: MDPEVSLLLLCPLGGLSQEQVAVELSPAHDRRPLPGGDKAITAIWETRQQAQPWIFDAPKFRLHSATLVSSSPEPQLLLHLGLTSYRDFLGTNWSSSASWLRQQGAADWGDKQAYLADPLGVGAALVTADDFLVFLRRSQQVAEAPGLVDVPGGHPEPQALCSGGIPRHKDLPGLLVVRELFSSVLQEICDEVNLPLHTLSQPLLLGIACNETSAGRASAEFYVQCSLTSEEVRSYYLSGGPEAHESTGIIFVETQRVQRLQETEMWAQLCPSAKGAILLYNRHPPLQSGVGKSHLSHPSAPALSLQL
UniProt Q9EP69: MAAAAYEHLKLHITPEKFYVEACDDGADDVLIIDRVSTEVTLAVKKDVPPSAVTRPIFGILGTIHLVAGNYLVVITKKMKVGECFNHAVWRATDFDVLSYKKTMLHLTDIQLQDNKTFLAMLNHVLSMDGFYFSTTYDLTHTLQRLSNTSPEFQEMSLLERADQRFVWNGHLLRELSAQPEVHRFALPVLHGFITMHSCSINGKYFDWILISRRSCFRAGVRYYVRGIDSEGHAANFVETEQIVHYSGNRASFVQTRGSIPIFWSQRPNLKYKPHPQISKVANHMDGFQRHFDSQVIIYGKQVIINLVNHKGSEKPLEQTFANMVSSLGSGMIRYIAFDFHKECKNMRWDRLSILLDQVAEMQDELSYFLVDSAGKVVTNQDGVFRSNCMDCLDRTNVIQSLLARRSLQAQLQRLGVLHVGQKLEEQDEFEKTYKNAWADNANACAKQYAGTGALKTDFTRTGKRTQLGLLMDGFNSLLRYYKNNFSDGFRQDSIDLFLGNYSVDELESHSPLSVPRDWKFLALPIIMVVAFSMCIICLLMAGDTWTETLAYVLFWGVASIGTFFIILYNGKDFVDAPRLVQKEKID
UniProt Q9DBP5: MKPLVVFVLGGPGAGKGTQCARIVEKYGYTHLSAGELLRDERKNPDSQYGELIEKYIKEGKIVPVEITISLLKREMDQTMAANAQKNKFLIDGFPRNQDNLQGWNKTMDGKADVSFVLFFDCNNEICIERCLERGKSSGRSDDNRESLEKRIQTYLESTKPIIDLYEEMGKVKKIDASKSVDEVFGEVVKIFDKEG
UniProt Q9DBT3: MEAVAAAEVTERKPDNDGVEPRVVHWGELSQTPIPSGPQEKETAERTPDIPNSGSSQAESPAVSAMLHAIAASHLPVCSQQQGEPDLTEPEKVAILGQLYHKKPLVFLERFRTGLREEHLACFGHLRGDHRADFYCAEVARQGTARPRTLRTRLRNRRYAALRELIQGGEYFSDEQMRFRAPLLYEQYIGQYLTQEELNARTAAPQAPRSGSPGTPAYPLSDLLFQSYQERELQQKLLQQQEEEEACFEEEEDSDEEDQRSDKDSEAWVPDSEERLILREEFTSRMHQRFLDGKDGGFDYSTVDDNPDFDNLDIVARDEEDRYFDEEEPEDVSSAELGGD
UniProt Q9DB20: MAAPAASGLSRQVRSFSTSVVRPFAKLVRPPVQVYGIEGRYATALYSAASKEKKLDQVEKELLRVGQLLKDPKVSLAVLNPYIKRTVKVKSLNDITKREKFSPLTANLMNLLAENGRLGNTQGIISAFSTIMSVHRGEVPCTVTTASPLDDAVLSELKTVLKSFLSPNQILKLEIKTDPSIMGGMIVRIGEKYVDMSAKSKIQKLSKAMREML
UniProt Q9ER99: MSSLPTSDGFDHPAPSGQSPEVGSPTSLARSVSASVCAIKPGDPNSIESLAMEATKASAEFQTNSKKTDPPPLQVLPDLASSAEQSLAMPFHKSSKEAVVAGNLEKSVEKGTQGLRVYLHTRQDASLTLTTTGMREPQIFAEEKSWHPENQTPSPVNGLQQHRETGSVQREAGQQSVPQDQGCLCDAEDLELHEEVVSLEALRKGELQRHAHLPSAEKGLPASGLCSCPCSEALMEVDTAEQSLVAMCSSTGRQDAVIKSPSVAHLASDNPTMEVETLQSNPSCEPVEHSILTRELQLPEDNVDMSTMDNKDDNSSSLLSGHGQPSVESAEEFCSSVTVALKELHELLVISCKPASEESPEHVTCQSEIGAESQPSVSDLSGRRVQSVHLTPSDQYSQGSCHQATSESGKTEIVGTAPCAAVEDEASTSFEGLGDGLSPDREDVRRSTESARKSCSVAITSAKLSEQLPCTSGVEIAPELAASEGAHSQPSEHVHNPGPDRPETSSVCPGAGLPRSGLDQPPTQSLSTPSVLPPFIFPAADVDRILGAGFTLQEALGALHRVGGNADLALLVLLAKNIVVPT
UniProt Q9DB27: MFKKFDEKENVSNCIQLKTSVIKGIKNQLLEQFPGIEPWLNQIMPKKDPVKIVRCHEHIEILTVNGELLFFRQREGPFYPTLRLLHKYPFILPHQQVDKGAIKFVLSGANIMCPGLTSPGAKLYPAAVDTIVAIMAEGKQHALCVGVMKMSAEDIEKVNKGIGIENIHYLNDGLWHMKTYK

This is one part of the list. Most values lie at the level of the controls, where differences are scatter.

Compound in the assay: CN[C@@H]1C[C@H]2O[C@@](C)([C@@H]1OC)n1c3ccccc3c3c4c(c5c6ccccc6n2c5c31)C(=O)NC4 [staurosporine]
The assay can be described thus: log2 fold change of tryptic peptide abundance, ligand vs vehicle (limited proteolysis) (log2 ratio); higher = more trypsin-susceptible (destabilized). The following applies: ligand concentration: 20 uM; sample: mouse liver crude lysate; replicate design: treated separately.
Turning to “UniProt Q9EPR4 (peptide sequence: SSDKDSQATV, peptide start residue: 639)”, the log2 fold change was -0.274. Take “UniProt Q9DC69 (peptide sequence: TFAFTGPNR, peptide start residue: 262)”: the log2 fold change was found to be 0.346. On to “UniProt Q9DBG6 (peptide sequence: YIANTVELR, peptide start residue: 358)”, for which the log2 fold change is -0.1. As for “UniProt Q9DB29 (peptide sequence: DMVQYLR, peptide start residue: 113)”, the log2 fold change is -0.474. The result for “UniProt Q9DBH5 (peptide sequence: DNVDDPTGNFR, peptide start residue: 306)” reads 0.346. For the target “UniProt Q9DBC3 (peptide sequence: HFVPTGVYIVR, peptide start residue: 741)”, the log2 fold change came out at 0.409.

For “UniProt Q9DBQ7 (peptide sequence: LFEVHEEHVR, peptide start residue: 345)”, the log2 fold change stood at 0.339. For “UniProt Q9DC60 (peptide sequence: VGDPQKNEWPEQDRLPER, peptide start residue: 21)”, the log2 fold change is 0.285. On to “UniProt Q9DBT9 (peptide sequence: LQASWVTHGVPPGFGK, peptide start residue: 313)”, for which the log2 fold change stood at 0.44. As for “UniProt Q9DB15 (peptide sequence: LVESLPQEIK, peptide start residue: 167)”, the figure is -0.0592; as for “UniProt Q9DBJ3 (peptide sequence: NVMEQFNPGLR, peptide start residue: 18)”, -0.207; as for “UniProt Q9DCL8 (peptide sequence: RKLHYNEGLNIK, peptide start residue: 145)”, 0.342. Regarding “UniProt Q9DCG2 (peptide sequence: KGDCEISSVEGTLCK, peptide start residue: 137)”, the log2 fold change is 0.597.

Turning to “UniProt Q9DBL2 (peptide sequence: EQSMSSVGFCVINSAKR, peptide start residue: 158)”, the log2 fold change came to 0.251. On to “UniProt Q9EPK7 (peptide sequence: LGWFDCQKDDYVFR, peptide start residue: 118)”, for which the log2 fold change amounted to 0.42. For the target “UniProt Q9DC70 (peptide sequence: LDDLINWAR, peptide start residue: 78)”, the log2 fold change is -0.0576.

As for “UniProt Q9EQ61 (peptide sequence: KLQLSLPDFRR, peptide start residue: 26)”, the log2 fold change was -0.327. Regarding “UniProt Q9DBB9 (peptide sequence: HLEPDAFGGLPR, peptide start residue: 87)”, the log2 fold change was -0.437. For “UniProt Q9DCU9 (peptide sequence: MSSAALIHHYTK, peptide start residue: 139)”, the log2 fold change was -0.0942.

As for “UniProt Q9DCP2 (peptide sequence: HLEGLLPVGVPTTDTQR, peptide start residue: 18)”, the log2 fold change was -0.191.

Take “UniProt Q9EQF5 (peptide sequence: QPFAEYIYKR, peptide start residue: 466)”: the log2 fold change came to 0.176.

Regarding “UniProt Q9DCL9 (peptide sequence: EVTPEGLQMVKK, peptide start residue: 236)”, the log2 fold change came out at 0.124. For the target “UniProt Q9DCB1 (peptide sequence: TESIEKEGE, peptide start residue: 91)”, the log2 fold change was -0.0303. Regarding “UniProt Q9DD16 (peptide sequence: DLPGLLVVR, peptide start residue: 171)”, the log2 fold change was 0.623.

For the target “UniProt Q9EPL2 (peptide sequence: ATEDVLVK, peptide start residue: 247)”, the log2 fold change is 0.0166. On to “UniProt Q9DB00 (peptide sequence: AAANSETIAPHR, peptide start residue: 2043)”, for which the log2 fold change came out at 0.498. As for “UniProt Q9EQH2 (peptide sequence: SQHSSSTSHWR, peptide start residue: 490)”, the log2 fold change was -0.0728. For “UniProt Q9EP69 (peptide sequence: YFDWILISRR, peptide start residue: 205)”, the log2 fold change came out at 0.485. For “UniProt Q9DBS8 (peptide sequence: HHPVTVQTIPQATAAK, peptide start residue: 507)”, the log2 fold change came to 0.175. As for “UniProt Q9DBB5 (peptide sequence: IHQLLPHIAFK, peptide start residue: 177)”, the figure is -0.0803. On to “UniProt Q9DBP5 (peptide sequence: IVEKYGYTHLSAGELLR, peptide start residue: 23)”, for which the log2 fold change was -0.3. For the target “UniProt Q9EQ28 (peptide sequence: VAVVREDKLEAVK, peptide start residue: 77)”, the log2 fold change is -1.

Turning to “UniProt Q9DBT3 (peptide sequence: KPLVFLER, peptide start residue: 103)”, the log2 fold change was -0.121. “UniProt Q9DB20 (peptide sequence: LVRPPVQVYGIEGR, peptide start residue: 27)”: the log2 fold change came out at 0.128. Consider “UniProt Q9DBS1 (peptide sequence: AANYSSTSSRK, peptide start residue: 2)”, for which the log2 fold change is -0.119.

In the case of “UniProt Q9ERF3 (peptide sequence: LWDLENGK, peptide start residue: 90)”, the log2 fold change worked out at 0.156. Turning to “UniProt Q9ER99 (peptide sequence: EAVVAGNLEK, peptide start residue: 97)”, the log2 fold change was determined as 0.168. On to “UniProt Q9EP71 (peptide sequence: KAPPPPISPTQLSDVSSPR, peptide start residue: 274)”, for which the log2 fold change is -0.211. On to “UniProt Q9DB27 (peptide sequence: LLHKYPFILPHQQVDKGAIK, peptide start residue: 84)”, for which the log2 fold change was -0.288.
